{"source": "patent US20020165140A1", "binders": {"B1": {"name": "GAL4-IPAS (protein, not shown: large carriers)", "chain": "MALGLQRVRSNTELRKEKSRDAARSRRSQETEVLYQLAHTLPFARGVSAHLDKASIMRLTISYLRMHRLCAAGGKRGRATGRLLPEGPGGFRHGTHRRGRHGLPVGKCQQAPGPQSVDLCSSSLIHNPTPGTNFSLELIGHSIFDFIHPCDQEELQDALTPRPNLSKKKLEAPTERHFSLRMKSTLTSRGRTLNLKAATWKVLHCSGHMRAYKPPAQTSPAGSPRSEPPLQCLVLICEAIPQLPFHDGATLGLPQEKTPISTLFTPLWKALLCLVKRWPVQVLQGKGTESSLPSWVLWALNRKNCPG"}}, "biological_target": "VP16-Arnt", "test": "mammalian two-hybrid assay in COS7 cells, GAL4-driven luciferase reporter", "note": "Results are given in words; binding and its absence hold for the method and conditions named."}
{"binder": "B1", "values": [{"measurement": "binding", "result": "no binding"}]}
